In article PMC12447449:
Results are given in words; binding and its absence hold for the method and conditions named. In cells and extracts the contact can be indirect. Some binding calls cover weakened binding; strength is not graded here. Tags and fused reporters may be left off the sequences shown.

Protein sequences, listed by entry. Tags and fused reporters are not part of them.
UniProt Q86XN7: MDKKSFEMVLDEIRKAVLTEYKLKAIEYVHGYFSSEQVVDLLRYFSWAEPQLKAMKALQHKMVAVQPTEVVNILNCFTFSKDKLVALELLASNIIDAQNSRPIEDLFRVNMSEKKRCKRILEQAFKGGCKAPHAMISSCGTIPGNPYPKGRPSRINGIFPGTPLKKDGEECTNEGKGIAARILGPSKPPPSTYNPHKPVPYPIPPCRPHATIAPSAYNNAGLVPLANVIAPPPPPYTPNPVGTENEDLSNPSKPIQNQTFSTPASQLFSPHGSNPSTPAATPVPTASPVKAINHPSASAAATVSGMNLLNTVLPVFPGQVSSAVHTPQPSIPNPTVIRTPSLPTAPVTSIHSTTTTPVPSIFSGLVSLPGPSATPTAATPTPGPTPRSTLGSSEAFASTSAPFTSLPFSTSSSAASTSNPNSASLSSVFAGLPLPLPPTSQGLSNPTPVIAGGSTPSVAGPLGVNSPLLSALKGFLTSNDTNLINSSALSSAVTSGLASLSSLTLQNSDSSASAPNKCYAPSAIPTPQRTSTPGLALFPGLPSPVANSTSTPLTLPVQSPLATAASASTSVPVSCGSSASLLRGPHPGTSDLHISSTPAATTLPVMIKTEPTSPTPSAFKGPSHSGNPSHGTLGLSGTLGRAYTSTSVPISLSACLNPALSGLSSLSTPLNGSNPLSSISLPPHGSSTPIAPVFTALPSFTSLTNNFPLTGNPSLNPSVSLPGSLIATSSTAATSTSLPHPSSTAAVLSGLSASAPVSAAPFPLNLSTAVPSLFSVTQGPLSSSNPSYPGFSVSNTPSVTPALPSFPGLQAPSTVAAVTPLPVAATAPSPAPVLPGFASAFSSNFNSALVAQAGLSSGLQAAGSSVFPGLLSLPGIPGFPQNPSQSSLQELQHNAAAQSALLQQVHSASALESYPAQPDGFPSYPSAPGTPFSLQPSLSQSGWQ

Columns and labels:
[1] = molecular target: FLAG-tagged full-length human TET2 (human) (UniProt Q6N021); experiment: co-IP; FLAG M2 IP on lysates from the human dendritic cell line CAL-1 overexpressing FLAG-tagged full-length human TET2; western blot of input and eluates
[2] = molecular target: FLAG-tagged full-length human TET2 (human) (UniProt Q6N021); experiment: co-IP; FLAG M2 IP on independent lysates from wild-type K562 or K562 cells overexpressing FLAG-tagged full-length human TET2; western blot of input and 10x concentrated eluates

| Molecule | binding [1] | binding [2] |
| --- | --- | --- |
| Proline and serine rich 1 (PROSER1) (from UniProt Q86XN7 1-944) | binds | binds |
| O-linked N-acetylglucosamine transferase (OGT) (enzyme, UniProt O15294 1-1046) MASSVGNVADSTEPTKRMLSFQGLAELAHREYQAGDFEAAERHCMQLWRQEPDNTGVLLLLSSIHFQCRRLDRSAHFSTLAIKQNPLLAEAYSNLGNVYKERGQLQEAIEHYRHALRLKPDFIDGYINLAAALVAAGDMEGAVQAYVSALQYNPDLYCVRSDLGNLLKALGRLEEAKACYLKAIETQPNFAVAWSNLGCVFNAQGEIWLAIHHFEKAVTLDPNFLDAYINLGNVLKEARIFDRAVAAYLRALSLSPNHAVVHGNLACVYYEQGLIDLAIDTYRRAIELQPHFPDAYCNLANALKEKGSVAEAEDCYNTALRLCPTHADSLNNLANIKREQGNIEEAVRLYRKALEVFPEFAAAHSNLASVLQQQGKLQEALMHYKEAIRISPTFADAYSNMGNTLKEMQDVQGALQCYTRAIQINPAFADAHSNLASIHKDSGNIPEAIASYRTALKLKPDFPDAYCNLAHCLQIVCDWTDYDERMKKLVSIVADQLEKNRLPSVHPHHSMLYPLSHGFRKAIAERHGNLCLDKINVLHKPPYEHPKDLKLSDGRLRVGYVSSDFGNHPTSHLMQSIPGMHNPDKFEVFCYALSPDDGTNFRVKVMAEANHFIDLSQIPCNGKAADRIHQDGIHILVNMNGYTKGARNELFALRPAPIQAMWLGYPGTSGALFMDYIITDQETSPAEVAEQYSEKLAYMPHTFFIGDHANMFPHLKKKAVIDFKSNGHIYDNRIVLNGIDLKAFLDSLPDVKIVKMKCPDGGDNADSSNTALNMPVIPMNTIAEAVIEMINRGQIQITINGFSISNGLATTQINNKAATGEEVPRTIIVTTRSQYGLPEDAIVYCNFNQLYKIDPSTLQMWANILKRVPNSVLWLLRFPAVGEPNIQQYAQNMGLPQNRIIFSPVAPKEEHVRRGQLADVCLDTPLCNGHTTGMDVLWAGTPMVTMPGETLASRVAASQLTCLGCLELIAKNRQEYEDIAVKLGTDLEYLKKVRGKVWKQRISSPLFNTKQYTMELERLYLQMWEHYAAGNKPDHMIKPVEVTESA | binds | binds |
| PSPC1 (protein, UniProt Q8WXF1 1-523) MMLRGNLKQVRIEKNPARLRALESAVGESEPAAAAAMALALAGEPAPPAPAPPEDHPDEEMGFTIDIKSFLKPGEKTYTQRCRLFVGNLPTDITEEDFKRLFERYGEPSEVFINRDRGFGFIRLESRTLAEIAKAELDGTILKSRPLRIRFATHGAALTVKNLSPVVSNELLEQAFSQFGPVEKAVVVVDDRGRATGKGFVEFAAKPPARKALERCGDGAFLLTTTPRPVIVEPMEQFDDEDGLPEKLMQKTQQYHKEREQPPRFAQPGTFEFEYASRWKALDEMEKQQREQVDRNIREAKEKLEAEMEAARHEHQLMLMRQDLMRRQEELRRLEELRNQELQKRKQIQLRHEEEHRRREEEMIRHREQEELRRQQEGFKPNYMENREQEMRMGDMGPRGAINMGDAFSPAPAGNQGPPPMMGMNMNNRATIPGPPMGPGPAMGPEGAANMGTPMMPDNGAVHNDRFPQGPPSQMGSPMGSRTGSETPQAPMSGVGPVSGGPGGFGRGSQGGNFEGPNKRRRY | binds | binds |
| NONO (protein, UniProt Q15233 1-471) MQSNKTFNLEKQNHTPRKHHQHHHQQQHHQQQQQQPPPPPIPANGQQASSQNEGLTIDLKNFRKPGEKTFTQRSRLFVGNLPPDITEEEMRKLFEKYGKAGEVFIHKDKGFGFIRLETRTLAEIAKVELDNMPLRGKQLRVRFACHSASLTVRNLPQYVSNELLEEAFSVFGQVERAVVIVDDRGRPSGKGIVEFSGKPAARKALDRCSEGSFLLTTFPRPVTVEPMDQLDDEEGLPEKLVIKNQQFHKEREQPPRFAQPGSFEYEYAMRWKALIEMEKQQQDQVDRNIKEAREKLEMEMEAARHEHQVMLMRQDLMRRQEELRRMEELHNQEVQKRKQLELRQEEERRRREEEMRRQQEEMMRRQQEGFKGTFPDAREQEIRMGQMAMGGAMGINNRGAMPPAPVPAGTPAPPGPATMMPDGTLGLTPPTTERFGQAATMEGIGAIGGTPPAFNRAAPGAEFAPNKRRRY | binds | binds |
